This passage reports binding signal results from publication PMC5996148.

Where “and” joins values, the source holds several entries; their conditions need not be identical. Equal entries are not always repeated. The list shows a part of the results.

Some test systems named below: TIMM10 (human); TIMM17A (human); TIMM8A (human); TIMM8B (human); TIMP4 (human); TINAGL1 (human); TIPIN (human); TK1 (human); TLE3 (human); TM2D2 (human); TM4SF19 (human); TM4SF4 (human); TMCC2 (human); TMCO2 (human); TMCO5 (human); TMED1 (human); TMED2 (human); TMEM101 (human); TMEM103 (human).
What all share (assay): protein microarray (ProtoArray v5.0), streptavidin-Alexa Fluor 647
Conditions in all cases: 3'-biotin; 20 mM Tris (pH 7.5), 5 mM MgCl2, 100 mM KCl, 0.1% Tween-20, A/T-rich and random oligonucleotide blockers; temperature not stated; high values mean tight binding

Assay [1] concerns TM2 domain-containing protein 2 (human).

Turning to “GGGAGGCTGAGGCAGG [G4-1 biotinylated (PQS2)]”, the binding signal in the assay on TIMM10 (human) was -0.336 z-score; in the assay on TIMM17A (human), -0.333 z-score; in the assay on TIMM8A (human), -0.361 z-score; in the assay on TIMM8B (human), -0.342 z-score; with TIMP4 (human), -0.233 z-score; in the assay with TINAGL1 (human) it was -0.304 z-score and -0.32 z-score. For the same sequence, the binding signal with TIPIN (human) is -0.351 z-score; with TK1 (human) it was -0.349 z-score; with TLE3 (human) it was -0.357 z-score and -0.343 z-score; in assay [1], -0.31 z-score; in the assay on TM2D2 (human), -0.303 z-score; in the assay with TM4SF19 (human) it was -0.319 z-score. Further, the binding signal with TM4SF4 (human) was -0.325 z-score; in the assay with TMCC2 (human), -0.29 z-score; in the assay on TMCO2 (human), -0.285 z-score; in the assay with TMCO5 (human) it was -0.234 z-score; with TMED1 (human), -0.303 z-score; with TMED2 (human) it was -0.3 z-score. Besides, the values for the binding signal with TMEM101 (human) and with TMEM103 (human) were -0.306 z-score and -0.319 z-score, respectively.
